PubChem BioAssay AID1224828, NIAID, 2016

Test: 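Knock-downs that increase or decrease LPS-induced p65 nuclear translocation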 (primary screen)
Cells: mouse RAW264.7 G9 macrophage reporter cells (GFP-p65, Tnf promoter-mCherry)
Reagents: siRNA pool against mouse genes, 100 nM
Timing: 2 days siRNA transfection, then 40 min LPS before fixation
Treatment: LPS (Salmonella minnesota R595) at 10 ng/ml
Measured: 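Imaged p65 nuclear translocation ratio, normalised to the plate median, converted to robust z-scores and averaged across two replicates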
Scale: p65 translocation robust z-score: higher = more nuclear NF-kappaB p65 after LPS than the plate median; nuclear/cytoplasmic p65 ratio: higher = more nuclear NF-kappaB p65
Rule for the call: 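Active if robust z is above 3.3 (negative regulators) or below -1.56, the Tlr4 control median (positive regulators); activity score 50 or more; control wells not called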
Calls: active = hit (p65 shift raised or lowered); inactive = no clear change
This is a random part of about 17,000 reagents tested. 762 of all reagents (4.5%) count as active. 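Active calls include both raised and lowered p65 entry, mostly lowered; wells with fewer than 50 cells lack a z-score.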 The raw values are shown without normalisation. Entries without a mark were called inactive. The numbers tell different reagents against one gene apart. Reagent sequences are not shown.

| Target gene | pool no. | p65 translocation robust z-score | nuclear/cytoplasmic p65 ratio, rep 1 | nuclear/cytoplasmic p65 ratio, rep 2 | low cell count flag |
| --- | --- | --- | --- | --- | --- |
| Vps33a | 1 | -0.55 | 1.32 | 1.16 | enough cells to score |
| Ebi3 | 1 | 0.05 | 1.49 | 1.36 | enough cells to score |
| Agpat5 | 1 | 0.27 | 1.58 | 1.61 | enough cells to score |
| Nrxn3 | 1 | -0.55 | 1.78 | 1.32 | enough cells to score |
| Zfp111 | 1 | 0.96 | 0 | 1.36 | enough cells to score |
| Dcaf7 | 1 | 0.08 | 1.58 | 1.67 | enough cells to score |
| Phf21a | 1 | – | 1.26 | 1.23 | fewer than 50 cells per well; well left out of scoring |
| Top1 | 1 | -0.48 | 1.4 | 1.51 | enough cells to score |
| Trim45 | 1 | – | 1.34 | 1.24 | fewer than 50 cells per well; well left out of scoring |
| Crabp2 | 1 | 1.34 | 1.76 | 2.02 | enough cells to score |
| Acrv1 | 1 | 0.29 | 1.68 | 1.7 | enough cells to score |
| Prrx2 | 1 | -0.3 | 1.45 | 1.37 | enough cells to score |
| Or13a20 | 1 | 0.68 | 1.91 | 1.68 | enough cells to score |
| Alcam | 1 | 0.31 | 1.65 | 1.68 | enough cells to score |
| Klhl12 | 1 | -0.05 | 1.54 | 1.35 | enough cells to score |
| Uncx | 1 | -1.05 | 1.2 | 1.11 | enough cells to score |
| Smim12 | 1 | -1.05 | 1.33 | 1.77 | enough cells to score |
| Atad2 | 1 | 1.33 | 1.66 | 1.96 | enough cells to score |
| Krt6b | 1 | – | 1.5 | 1.3 | fewer than 50 cells per well; well left out of scoring |
| Hagh | 1 | -0.08 | 1.39 | 1.4 | enough cells to score |
| Zfp367 | 1 | 0.67 | 1.57 | 1.27 | enough cells to score |
| Trp53bp2 | 1 | -0.53 | 1.47 | 1.4 | enough cells to score |
| Tiprl | 1 | 0.47 | 1.48 | 1.46 | enough cells to score |
| Toe1 | 1 | – | 1.17 | 2.94 | fewer than 50 cells per well; well left out of scoring |
| Gria2 | 1 | -0.01 | 1.37 | 1.43 | enough cells to score |
| Rpl35 | 1 | 0.38 | 1.43 | 1.26 | enough cells to score |
| 1700020L24Rik | 1 | – | 1.37 | 1.29 | fewer than 50 cells per well; well left out of scoring |
| Acot1 | 1 | -0.72 | 1.46 | 1.68 | enough cells to score |
| Nup133 | 1 | -0.06 | 1.89 | 1.36 | enough cells to score |
| Defa4 | 1 | 1.16 | 1.79 | 1.66 | enough cells to score |
| Aif1l | 1 | -0.61 | 1.4 | 1.3 | enough cells to score |
| Slc9c1 | 1 | -0.92 | 1.53 | 1.43 | enough cells to score |
| Or6c205 | 1 | 0 | 1.58 | 1.45 | enough cells to score |
| Or6c205 | 2 | 0.46 | 1.6 | 1.24 | enough cells to score |
| Lrif1 | 1 | 2.83 | 1.64 | 1.93 | enough cells to score |
| Mmel1 | 1 | 0.09 | 1.73 | 1.56 | enough cells to score |
| Stard7 | 1 | 0.45 | 1.55 | 1.22 | enough cells to score |
| Trappc6a | 1 | – | 1.29 | 1.55 | fewer than 50 cells per well; well left out of scoring |
| Flywch1 | 1 | 0.87 | 1.52 | 1.53 | enough cells to score |
| Gnb3 | 1 | 1.47 | 1.74 | 1.77 | enough cells to score |
| Aebp1 | 1 | -0.41 | 1.56 | 1.61 | enough cells to score |
| Per2 | 1 | -0.26 | 1.41 | 1.38 | enough cells to score |
| Lipt2 | 1 | -0.96 | 1.31 | 1.33 | enough cells to score |
| Sfi1 | 1 | – | 1.3 | 1.03 | fewer than 50 cells per well; well left out of scoring |
| Rps19 | 1 | -1.12 | 1.25 | 1.11 | enough cells to score |
| Klf15 | 1 | -0.39 | 1.5 | 1.26 | enough cells to score |
| Plscr4 | 1 | 0.06 | 1.39 | 1.22 | enough cells to score |
| Cnot8 | 1 | 0.65 | 1.5 | 1.51 | enough cells to score |
| Agr2 | 1 | -0.48 | 1.58 | 1.56 | enough cells to score |
| Or2ag19 | 1 | 0.66 | 1.53 | 1.24 | enough cells to score |
| P2ry1 | 1 | – | 1.52 | 1.41 | fewer than 50 cells per well; well left out of scoring |
| Stmn2 | 1 | -0.62 | 1.51 | 1.42 | enough cells to score |
| Gatad2a | 1 | -0.23 | 1.6 | 1.75 | enough cells to score |
| Galnt18 | 1 | -0.01 | 1.62 | 1.79 | enough cells to score |
| Faim2 | 1 | -1.21 | 1.34 | 1.36 | enough cells to score |
| 1700123O20Rik | 1 | 0.95 | 1.26 | 1.54 | enough cells to score |
| Mllt11 | 1 | 1.43 | 1.73 | 1.94 | enough cells to score |
| Lrrc7 | 1 | -0.25 | 1.5 | 1.66 | enough cells to score |
| Il21 | 1 | – | 1.16 | 1.52 | fewer than 50 cells per well; well left out of scoring |

Limited to “low cell count flag”, for 8 of the entries above:
Smim12	enough cells to score
Atad2	enough cells to score
Krt6b	fewer than 50 cells per well; well left out of scoring
Hagh	enough cells to score
Zfp367	enough cells to score
Trp53bp2	enough cells to score
Tiprl	enough cells to score
Toe1	fewer than 50 cells per well; well left out of scoring
